Some of the results follow. Small differences around the control level are noise.

The chains behind the UniProt entries cited, without tags or fusion partners. Where a name states a change or a piece, a line headed by the entry shows the natural chain unless it says otherwise.
UniProt Q9DB91: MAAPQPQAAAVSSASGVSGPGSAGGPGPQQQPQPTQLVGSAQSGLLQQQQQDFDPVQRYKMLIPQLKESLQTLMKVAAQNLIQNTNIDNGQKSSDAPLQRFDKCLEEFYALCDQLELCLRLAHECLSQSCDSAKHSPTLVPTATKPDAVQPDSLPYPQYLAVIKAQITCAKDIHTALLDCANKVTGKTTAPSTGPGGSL
UniProt Q9DD06: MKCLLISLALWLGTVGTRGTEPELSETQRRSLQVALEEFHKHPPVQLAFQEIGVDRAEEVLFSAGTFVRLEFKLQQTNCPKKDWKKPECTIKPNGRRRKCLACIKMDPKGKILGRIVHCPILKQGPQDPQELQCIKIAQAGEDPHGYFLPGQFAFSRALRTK
UniProt Q9DCV3: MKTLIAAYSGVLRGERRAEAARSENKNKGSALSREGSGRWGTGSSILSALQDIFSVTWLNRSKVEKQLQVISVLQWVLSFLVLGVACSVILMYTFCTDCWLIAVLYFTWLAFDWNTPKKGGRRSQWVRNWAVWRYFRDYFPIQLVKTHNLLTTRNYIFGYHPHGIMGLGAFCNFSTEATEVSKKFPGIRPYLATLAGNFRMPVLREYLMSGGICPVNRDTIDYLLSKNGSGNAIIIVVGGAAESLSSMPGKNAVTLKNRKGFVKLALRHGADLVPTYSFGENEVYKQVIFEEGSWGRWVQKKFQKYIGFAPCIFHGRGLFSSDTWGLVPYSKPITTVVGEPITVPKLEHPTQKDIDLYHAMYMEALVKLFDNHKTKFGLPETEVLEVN
UniProt Q9DD03: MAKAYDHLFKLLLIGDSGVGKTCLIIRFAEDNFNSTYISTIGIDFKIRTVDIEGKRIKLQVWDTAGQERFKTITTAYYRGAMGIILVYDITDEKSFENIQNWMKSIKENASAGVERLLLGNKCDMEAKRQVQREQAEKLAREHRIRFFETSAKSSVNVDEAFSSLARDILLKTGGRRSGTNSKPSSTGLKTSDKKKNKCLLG
UniProt Q9DCJ5: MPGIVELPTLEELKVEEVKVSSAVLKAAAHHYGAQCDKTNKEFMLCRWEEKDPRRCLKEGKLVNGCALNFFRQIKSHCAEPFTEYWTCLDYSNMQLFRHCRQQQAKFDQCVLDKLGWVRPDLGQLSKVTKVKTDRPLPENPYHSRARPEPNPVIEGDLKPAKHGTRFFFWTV
UniProt Q9DBA8: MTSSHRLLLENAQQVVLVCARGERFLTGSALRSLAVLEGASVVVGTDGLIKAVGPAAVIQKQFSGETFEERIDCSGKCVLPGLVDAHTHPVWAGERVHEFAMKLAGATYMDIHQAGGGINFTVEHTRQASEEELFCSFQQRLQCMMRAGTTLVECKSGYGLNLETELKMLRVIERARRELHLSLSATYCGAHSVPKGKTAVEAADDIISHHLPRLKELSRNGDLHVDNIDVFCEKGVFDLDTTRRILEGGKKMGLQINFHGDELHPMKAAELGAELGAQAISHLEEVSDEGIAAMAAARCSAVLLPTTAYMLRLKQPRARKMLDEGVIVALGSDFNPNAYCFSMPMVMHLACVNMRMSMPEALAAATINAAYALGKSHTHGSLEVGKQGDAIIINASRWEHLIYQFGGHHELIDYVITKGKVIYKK
UniProt Q9DB77: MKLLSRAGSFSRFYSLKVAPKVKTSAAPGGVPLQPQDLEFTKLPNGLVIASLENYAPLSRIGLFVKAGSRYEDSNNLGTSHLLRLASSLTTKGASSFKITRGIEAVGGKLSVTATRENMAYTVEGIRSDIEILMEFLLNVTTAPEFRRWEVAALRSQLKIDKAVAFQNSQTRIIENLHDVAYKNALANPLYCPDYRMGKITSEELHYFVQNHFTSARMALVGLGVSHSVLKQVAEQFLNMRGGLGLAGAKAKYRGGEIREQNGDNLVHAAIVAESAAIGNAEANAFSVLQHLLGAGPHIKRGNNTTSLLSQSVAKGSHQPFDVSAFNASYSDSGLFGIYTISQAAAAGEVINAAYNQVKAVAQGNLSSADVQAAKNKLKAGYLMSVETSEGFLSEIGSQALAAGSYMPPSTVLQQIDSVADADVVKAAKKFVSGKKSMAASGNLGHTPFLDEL
UniProt Q9DCE5: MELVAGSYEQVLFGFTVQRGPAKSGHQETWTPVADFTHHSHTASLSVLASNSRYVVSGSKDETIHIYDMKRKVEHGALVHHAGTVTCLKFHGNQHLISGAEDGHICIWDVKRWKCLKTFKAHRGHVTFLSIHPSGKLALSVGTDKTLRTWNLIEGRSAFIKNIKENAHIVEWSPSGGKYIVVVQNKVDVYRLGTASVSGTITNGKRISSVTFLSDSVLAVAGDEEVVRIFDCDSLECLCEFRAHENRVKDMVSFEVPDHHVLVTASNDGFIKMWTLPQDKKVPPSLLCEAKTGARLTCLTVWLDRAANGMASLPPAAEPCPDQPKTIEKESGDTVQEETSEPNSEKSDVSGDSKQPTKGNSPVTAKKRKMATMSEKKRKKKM
UniProt Q9ER74: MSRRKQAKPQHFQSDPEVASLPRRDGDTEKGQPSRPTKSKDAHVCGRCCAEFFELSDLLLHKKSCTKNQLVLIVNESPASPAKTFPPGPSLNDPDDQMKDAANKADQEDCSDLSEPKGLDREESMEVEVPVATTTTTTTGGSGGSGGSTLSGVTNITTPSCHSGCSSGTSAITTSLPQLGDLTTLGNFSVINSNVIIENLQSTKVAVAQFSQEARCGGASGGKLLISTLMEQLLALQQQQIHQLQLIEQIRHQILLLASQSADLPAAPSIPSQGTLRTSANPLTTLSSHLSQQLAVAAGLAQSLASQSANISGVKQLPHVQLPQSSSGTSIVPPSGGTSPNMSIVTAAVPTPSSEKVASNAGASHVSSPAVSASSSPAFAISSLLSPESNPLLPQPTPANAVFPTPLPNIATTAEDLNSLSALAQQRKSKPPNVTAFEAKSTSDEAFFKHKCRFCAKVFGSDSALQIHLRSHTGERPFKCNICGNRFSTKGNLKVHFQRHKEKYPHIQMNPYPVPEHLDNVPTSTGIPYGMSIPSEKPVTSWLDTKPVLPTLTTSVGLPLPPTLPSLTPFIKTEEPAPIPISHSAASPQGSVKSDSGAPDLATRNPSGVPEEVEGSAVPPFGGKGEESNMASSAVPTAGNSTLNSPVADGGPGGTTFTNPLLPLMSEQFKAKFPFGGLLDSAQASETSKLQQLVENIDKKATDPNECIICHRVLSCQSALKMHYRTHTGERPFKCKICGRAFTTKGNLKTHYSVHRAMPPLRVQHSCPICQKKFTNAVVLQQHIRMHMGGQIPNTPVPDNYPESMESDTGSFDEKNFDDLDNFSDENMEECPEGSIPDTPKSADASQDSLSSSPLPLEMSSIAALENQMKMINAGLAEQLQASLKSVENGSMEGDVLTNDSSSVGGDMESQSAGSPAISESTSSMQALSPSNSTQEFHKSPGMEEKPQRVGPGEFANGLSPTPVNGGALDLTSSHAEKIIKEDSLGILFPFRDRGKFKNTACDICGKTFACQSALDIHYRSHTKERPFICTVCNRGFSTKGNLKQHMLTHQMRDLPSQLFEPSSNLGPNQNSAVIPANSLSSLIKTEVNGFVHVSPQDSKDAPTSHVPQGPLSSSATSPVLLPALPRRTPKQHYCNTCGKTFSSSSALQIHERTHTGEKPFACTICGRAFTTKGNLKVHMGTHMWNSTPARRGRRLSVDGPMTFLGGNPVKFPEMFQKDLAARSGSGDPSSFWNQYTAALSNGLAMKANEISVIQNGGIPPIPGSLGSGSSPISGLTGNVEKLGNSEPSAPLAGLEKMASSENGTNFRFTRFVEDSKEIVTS
UniProt Q9EPW2: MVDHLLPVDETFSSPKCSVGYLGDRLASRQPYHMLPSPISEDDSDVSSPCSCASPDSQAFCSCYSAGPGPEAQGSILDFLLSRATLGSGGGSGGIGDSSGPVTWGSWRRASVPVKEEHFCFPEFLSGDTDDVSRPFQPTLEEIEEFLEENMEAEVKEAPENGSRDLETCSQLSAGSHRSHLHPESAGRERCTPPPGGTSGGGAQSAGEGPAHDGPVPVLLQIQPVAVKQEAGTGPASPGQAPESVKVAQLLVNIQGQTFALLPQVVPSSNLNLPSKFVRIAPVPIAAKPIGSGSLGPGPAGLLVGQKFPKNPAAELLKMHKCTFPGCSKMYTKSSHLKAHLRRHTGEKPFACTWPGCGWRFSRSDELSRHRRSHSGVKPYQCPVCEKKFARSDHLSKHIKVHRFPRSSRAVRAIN
UniProt Q9DCE9: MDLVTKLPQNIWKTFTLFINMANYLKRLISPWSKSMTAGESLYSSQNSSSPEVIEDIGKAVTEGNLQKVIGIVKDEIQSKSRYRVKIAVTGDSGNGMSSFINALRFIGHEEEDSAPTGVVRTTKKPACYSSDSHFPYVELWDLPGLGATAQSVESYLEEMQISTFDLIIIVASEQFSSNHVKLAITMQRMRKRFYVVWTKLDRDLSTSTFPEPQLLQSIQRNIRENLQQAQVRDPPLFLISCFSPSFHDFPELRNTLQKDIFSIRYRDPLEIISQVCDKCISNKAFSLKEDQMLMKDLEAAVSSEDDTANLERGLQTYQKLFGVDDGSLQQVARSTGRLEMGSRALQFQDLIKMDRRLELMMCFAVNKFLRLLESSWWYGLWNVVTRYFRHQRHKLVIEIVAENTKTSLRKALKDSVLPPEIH
UniProt Q9EQT3: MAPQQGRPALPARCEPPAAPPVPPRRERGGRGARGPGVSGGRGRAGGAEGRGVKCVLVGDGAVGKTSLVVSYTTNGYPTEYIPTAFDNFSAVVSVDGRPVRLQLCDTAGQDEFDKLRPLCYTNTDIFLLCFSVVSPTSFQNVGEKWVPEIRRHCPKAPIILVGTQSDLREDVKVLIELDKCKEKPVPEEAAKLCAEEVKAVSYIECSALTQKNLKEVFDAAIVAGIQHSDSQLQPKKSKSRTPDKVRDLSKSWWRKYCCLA
UniProt Q9DC23: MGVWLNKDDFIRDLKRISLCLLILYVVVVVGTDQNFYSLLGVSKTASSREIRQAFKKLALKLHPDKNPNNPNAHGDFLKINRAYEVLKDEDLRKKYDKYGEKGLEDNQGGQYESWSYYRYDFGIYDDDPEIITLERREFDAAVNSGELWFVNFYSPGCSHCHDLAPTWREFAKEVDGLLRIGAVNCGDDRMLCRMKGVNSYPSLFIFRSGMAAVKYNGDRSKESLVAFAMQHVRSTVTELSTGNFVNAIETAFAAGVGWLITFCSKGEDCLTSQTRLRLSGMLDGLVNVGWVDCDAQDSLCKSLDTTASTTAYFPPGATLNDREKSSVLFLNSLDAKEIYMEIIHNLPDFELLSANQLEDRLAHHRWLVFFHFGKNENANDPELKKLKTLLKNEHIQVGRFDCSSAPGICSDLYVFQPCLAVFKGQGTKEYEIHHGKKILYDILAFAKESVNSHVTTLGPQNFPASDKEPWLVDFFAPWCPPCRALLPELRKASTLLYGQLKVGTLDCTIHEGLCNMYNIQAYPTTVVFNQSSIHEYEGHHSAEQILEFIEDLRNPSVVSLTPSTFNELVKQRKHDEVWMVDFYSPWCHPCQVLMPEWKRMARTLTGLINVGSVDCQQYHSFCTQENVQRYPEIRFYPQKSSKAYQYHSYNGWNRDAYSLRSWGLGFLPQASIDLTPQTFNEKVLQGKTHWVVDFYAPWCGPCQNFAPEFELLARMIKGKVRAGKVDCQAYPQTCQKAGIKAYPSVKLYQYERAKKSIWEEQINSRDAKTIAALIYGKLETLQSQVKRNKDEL
UniProt Q9DCS1: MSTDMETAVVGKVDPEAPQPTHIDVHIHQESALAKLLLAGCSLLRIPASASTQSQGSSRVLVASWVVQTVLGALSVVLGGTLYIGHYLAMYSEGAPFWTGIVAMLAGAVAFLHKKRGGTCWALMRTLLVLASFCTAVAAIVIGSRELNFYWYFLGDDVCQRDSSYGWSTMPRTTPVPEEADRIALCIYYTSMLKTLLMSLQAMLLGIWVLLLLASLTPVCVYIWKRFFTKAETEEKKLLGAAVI
UniProt Q9DBN4: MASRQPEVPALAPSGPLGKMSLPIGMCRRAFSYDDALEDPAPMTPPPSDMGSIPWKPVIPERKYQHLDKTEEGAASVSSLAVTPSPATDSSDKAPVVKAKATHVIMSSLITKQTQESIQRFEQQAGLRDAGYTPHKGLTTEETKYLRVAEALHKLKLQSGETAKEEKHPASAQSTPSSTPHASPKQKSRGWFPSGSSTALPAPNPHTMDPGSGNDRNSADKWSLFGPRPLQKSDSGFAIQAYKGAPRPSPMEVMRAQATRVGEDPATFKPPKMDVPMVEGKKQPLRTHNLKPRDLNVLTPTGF
UniProt Q9DCT6, whole entry: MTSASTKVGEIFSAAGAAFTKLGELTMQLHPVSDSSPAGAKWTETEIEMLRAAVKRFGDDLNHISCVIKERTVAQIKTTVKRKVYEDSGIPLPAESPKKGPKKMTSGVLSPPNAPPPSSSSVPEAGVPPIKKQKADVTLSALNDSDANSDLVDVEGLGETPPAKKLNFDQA
UniProt Q9DCC4: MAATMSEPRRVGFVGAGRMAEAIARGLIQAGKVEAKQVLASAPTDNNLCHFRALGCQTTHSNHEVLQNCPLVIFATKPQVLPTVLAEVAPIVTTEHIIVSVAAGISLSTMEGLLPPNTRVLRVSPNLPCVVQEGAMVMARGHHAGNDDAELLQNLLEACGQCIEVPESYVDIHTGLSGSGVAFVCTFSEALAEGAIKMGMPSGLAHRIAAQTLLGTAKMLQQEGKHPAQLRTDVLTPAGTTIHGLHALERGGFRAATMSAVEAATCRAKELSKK

Compound in this experiment: CN[C@@H]1C[C@H]2O[C@@](C)([C@@H]1OC)n1c3ccccc3c3c4c(c5c6ccccc6n2c5c31)C(=O)NC4 [staurosporine]
Briefly: log2 fold change of tryptic peptide abundance, ligand vs vehicle (limited proteolysis) (log2 ratio); higher = more trypsin-susceptible (destabilized). To be noted: ligand concentration: 20 uM; sample: mouse liver crude lysate; replicate design: treated separately.
As to “UniProt Q9DCZ1 (peptide sequence: HAGGVAEYR, peptide start residue: 278)”, the log2 fold change is 0.332. On to “UniProt Q9DBG7 (peptide sequence: GTLGGMFGMLK, peptide start residue: 313)”, for which the log2 fold change was -0.12.

With “UniProt Q9DB91 (peptide sequence: ESLQTLMK, peptide start residue: 68)”, the log2 fold change stood at 0.196.

With “UniProt Q9DD06 (peptide sequence: KPECTIKPNGR, peptide start residue: 86)”, the log2 fold change is -0.114. The figure for “UniProt Q9EQZ6 (peptide sequence: LALTWEKLPSK, peptide start residue: 878)” is 0.691; for “UniProt Q9DBU5 (peptide sequence: AGLAESTVESTSGGFHR, peptide start residue: 411)” it is -0.382. As to “UniProt Q9DCV3 (peptide sequence: THNLLTTR, peptide start residue: 147)”, the log2 fold change is 0.206. Regarding “UniProt Q9DD03 (peptide sequence: SGTNSKPSSTGLK, peptide start residue: 178)”, the log2 fold change was -0.466. Next, “UniProt Q9DCJ5 (peptide sequence: LGWVRPDLGQLSK, peptide start residue: 115)”: 0.327. Next, “UniProt Q9DBA8 (peptide sequence: NGDLHVDNIDVFCEK, peptide start residue: 221)”: -0.147; “UniProt Q9DB77 (peptide sequence: IDKAVAFQNSQTR, peptide start residue: 160)”: -0.537; “UniProt Q9DCU6 (peptide sequence: DSAGLLDPVLRK, peptide start residue: 39)”: 0.524. Next, “UniProt Q9DCD2 (peptide sequence: AIEVLSDEHAR, peptide start residue: 655)”: 0.296; “UniProt Q9DCA2 (peptide sequence: KGTGIAAQTAGIAAAAK, peptide start residue: 119)”: -0.12; “UniProt Q9DCE5 (peptide sequence: KMATMSEK, peptide start residue: 369)”: 0.587. Consider “UniProt Q9ER74 (peptide sequence: VAVAQFSQEAR, peptide start residue: 205)”, for which the log2 fold change is -0.179. As to “UniProt Q9EPW2 (peptide sequence: SHLHPESAGR, peptide start residue: 179)”, the log2 fold change was -0.116. Next, “UniProt Q9ERS4 (peptide sequence: EISETSESLK, peptide start residue: 105)”: -0.211; “UniProt Q9DBS5 (peptide sequence: KQGTDPISQTK, peptide start residue: 495)”: -0.187; “UniProt Q9DCE9 (peptide sequence: ALQFQDLIK, peptide start residue: 345)”: 0.2. For the target “UniProt Q9EQT3 (peptide sequence: CVLVGDGAVGK, peptide start residue: 55)”, the log2 fold change was -0.207. As for “UniProt Q9ER41 (peptide sequence: IYSDKGCK, peptide start residue: 320)”, the log2 fold change came to 0.553. The figure for “UniProt Q9DC23 (peptide sequence: LETLQSQVK, peptide start residue: 779)” is 0.23. The figure for “UniProt Q9DAU9 (peptide sequence: TYIDTMEKK, peptide start residue: 910)” is 0.561; for “UniProt Q9DCS1 (peptide sequence: LLLAGCSLLR, peptide start residue: 36)” it is 0.18; for “UniProt Q9ER73 (peptide sequence: ELEDVHSAK, peptide start residue: 140)” it is -0.367. Next, “UniProt Q9DBN4 (peptide sequence: VGEDPATFKPPK, peptide start residue: 261)”: 0.27; “UniProt Q9DCT6 (peptide sequence: FGDDLNHISCVIKER, peptide start residue: 57)”: 0.404; “UniProt Q9DCC4 (peptide sequence: AATMSAVEAATCRAKELSK, peptide start residue: 255)”: -0.36. Turning to “UniProt Q9EQK7 (peptide sequence: VPTGLPFIK, peptide start residue: 269)”, the log2 fold change is 0.469.

Consider “UniProt Q9DBV3 (peptide sequence: HLHNDFLLGVLQR, peptide start residue: 287)”, for which the log2 fold change worked out at 0.385.

Source of the values: the supplement of paper PMC12819154, “High-throughput peptide-centric local stability assay extends protein–ligand identification to membrane proteins, tissues and bacteria” (Nature Structural & Molecular Biology, 2025).
